Reference: patent US20160122315A1, “CRYSTALLINE IMATINIB MESYLATE PROCESS” (SHILPA MEDICARE LIMITED, priority 2013, published 2016)

Details: storage time; solid crystalline form

Structure (SMILES): Cc1ccc(NC(=O)c2ccc(CN3CCN(C)CC3)cc2)cc1Nc1nccc(-c2cccnc2)n1 [Form-SA, 4-[(4-Methyl-1-piperazinyl)methyl]-N-[4-methyl-3-[[4-(3-pyridinyl)-2-pyrimidinyl]amino]-phenyl]benzamide methanesulfonate]
- adequately stable to handle and store without any significant or measurable change in morphology and physicochemical characteristics: more than 6 months
